Laboratory results published in patent US20120284812A1, “Herbicide-Tolerant Plants” (BASF AGROCHEMICAL PRODUCTS, B.V., priority 2009, published 2012).

System: rice calli
Experiment: Tissue culture selection of herbicide-tolerant mutant rice lines
Assay type: cell-based, Oryza sativa
[1] = Total over genotypes for the selection agent
[2] = genotype Indica 1, mutants per calli

SMILES	Rate [1] [%]	Rate [2] [%]	Rate (genotype Koshi, mutants per calli) [%]	Rate (genotype T309, mutants per calli) [%]	mutant rate relative to previous reports using sethoxydim selection (versus maize and seashore paspalum reports) [fold]
CCCC(=NOCC)C1=C(O)CC(C2CCCSC2)CC1=O (stereo not shown) [cycloxydim]	0.203	0.161	0.333	0.444	~10
CCC/C(=N\OCC)C1=C(O)CC(CC(C)SCC)CC1=O (stereo not shown) [sethoxydim]	0.068	0.114			
